Results on one molecule are retold here after patent publication US11590087B2, “Cannabidiol-type cannabinoid compound” (GW Research Limited, priority 2019, dated 2023).

This series has as its system tonic hind limb extensor convulsions. Kind of series: Maximal electroshock seizure threshold (MEST) test in the mouse. The note with it: 2.5 mg/kg i.p., 30 min pre-treatment, current giving tonic hind limb extension in 50% of animals. As to the method: The efficacy of 6-OH CBDV was tested in a mouse model of generalised seizure, the maximal electroshock seizure threshold (MEST) test.
The maximal electroshock seizure threshold (MEST) test is widely utilized preclinically to evaluate pro- or anti-convulsant properties of test compounds (Loscher et al., 1991).
In the MEST test the ability of a drug to alter the seizure threshold current required to induce hind limb tonic extensor convulsions is measured according to an “up and down” method of shock titration (Kimball et al., 1957). An increase in seizure threshold is indicative of anti-convulsant effect.
The ability of a test compound to alter the stimulus intensity, expressed as current (mA), required to induce the presence of tonic hind limb extensor convulsions, is assessed in the MEST.
Naïve mice were acclimatised to the procedure room in their home cages for up to 7 days, with food and water available ad libitum.
All animals were weighed at the beginning of the study and randomly assigned to treatment groups based on a mean distribution of body weight across groups. […]
6-OH CBDV effects were also calculated as percentage change in CC50 from the vehicle control group.
Significant difference between drug-treated animals and controls were assessed according to Litchfield and Wilcoxon (1949).

`CN1C(=O)CN=C(c2ccccc2)c2cc(Cl)ccc21` [Diazepam, diazepam, reference compound]: the “CC50 ± SEM” value came to 57.5 ± 0.3 mA. Further, the “CC50 ± SEM” value (listed as diazepam) is on record as 57.5 mA.
